These are yes or no findings as the source states them, for the method shown. Binding seen in cells or lysates may run through a third protein. Here binding means that the protein was enriched with, or labelled near, the bait; the list need not be complete.
T1: CLN7 (human (endogenous in SH-SY5Y)) (UniProt Q8NHS3)
T1 sequence: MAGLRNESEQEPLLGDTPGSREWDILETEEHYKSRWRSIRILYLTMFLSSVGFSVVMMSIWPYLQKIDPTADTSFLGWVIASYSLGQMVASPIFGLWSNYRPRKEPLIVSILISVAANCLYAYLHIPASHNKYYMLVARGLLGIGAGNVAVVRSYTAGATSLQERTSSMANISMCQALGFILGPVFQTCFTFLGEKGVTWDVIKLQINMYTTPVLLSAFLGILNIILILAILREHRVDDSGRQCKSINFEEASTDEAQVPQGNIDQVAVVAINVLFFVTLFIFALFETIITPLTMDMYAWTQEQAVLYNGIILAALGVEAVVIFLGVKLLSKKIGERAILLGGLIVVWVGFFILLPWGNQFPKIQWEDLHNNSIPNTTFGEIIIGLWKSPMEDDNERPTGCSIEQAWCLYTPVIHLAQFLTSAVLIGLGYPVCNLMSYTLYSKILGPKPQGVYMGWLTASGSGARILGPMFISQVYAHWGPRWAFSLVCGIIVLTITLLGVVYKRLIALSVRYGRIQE


Target: T1, CLN7 (human (endogenous in SH-SY5Y))
Test: affinity purification with mass spectrometry; endogenous CLN7 immunoprecipitated from 2.5 mg SH-SY5Y lysate with a polyclonal anti-CLN7 antibody raised against L9 (351-421aa, Proteintech) on G-sepharose beads; IgG as non-specific binding control; 4 independent replicates; cells under steady state culture conditions

Binder	binding
NCAPD3 (protein, UniProt P42695 1-1498) MVALRGLGSGLQPWCPLDLRLEWVDTVWELDFTETEPLDPSIEAEIIETGLAAFTKLYESLLPFATGEHGSMESIWTFFIENNVSHSTLVALFYHFVQIVHKKNVSVQYREYGLHAAGLYFLLLEVPGSVANQVFHPVMFDKCIQTLKKSWPQESNLNRKRKKEQPKSSQANPGRHRKRGKPPRREDIEMDEIIEEQEDENICFSARDLSQIRNAIFHLLKNFLRLLPKFSLKEKPQCVQNCIEVFVSLTNFEPVLHECHVTQARALNQAKYIPELAYYGLYLLCSPIHGEGDKVISCVFHQMLSVILMLEVGEGSHRAPLAVTSQVINCRNQAVQFISALVDELKESIFPVVRILLQHICAKVVDKSEYRTFAAQSLVQLLSKLPCGEYAMFIAWLYKYSRSSKIPHRVFTLDVVLALLELPEREVDNTLSLEHQKFLKHKFLVQEIMFDRCLDKAPTVRSKALSSFAHCLELTVTSASESILELLINSPTFSVIESHPGTLLRNSSAFSYQRQTSNRSEPSGEINIDSSGETVGSGERCVMAMLRRRIRDEKTNVRKSALQVLVSILKHCDVSGMKEDLWILQDQCRDPAVSVRKQALQSLTELLMAQPRCVQIQKAWLRGVVPVVMDCESTVQEKALEFLDQLLLQNIRHHSHFHSGDDSQVLAWALLTLLTTESQELSRYLNKAFHIWSKKEKFSPTFINNVISHTGTEHSAPAWMLLSKIAGSSPRLDYSRIIQSWEKISSQQNPNSNTLGHILCVIGHIAKHLPKSTRDKVTDAVKCKLNGFQWSLEVISSAVDALQRLCRASAETPAEEQELLTQVCGDVLSTCEHRLSNIVLKENGTGNMDEDLLVKYIFTLGDIAQLCPARVEKRIFLLIQSVLASSADADHSPSSQGSSEAPASQPPPQVRGSVMPSVIRAHAIITLGKLCLQHEDLAKKSIPALVRELEVCEDVAVRNNVIIVMCDLCIRYTIMVDKYIPNISMCLKDSDPFIRKQTLILLTNLLQEEFVKWKGSLFFRFVSTLIDSHPDIASFGEFCLAHLLLKRNPVMFFQHFIECIFHFNNYEKHEKYNKFPQSEREKRLFSLKGKSNKERRMKIYKFLLEHFTDEQRFNITSKICLSILACFADGILPLDLDASELLSDTFEVLSSKEIKLLAMRSKPDKDLLMEEDDMALANVVMQEAQKKLISQVQKRNFIENIIPIIISLKTVLEKNKIPALRELMHYLREVMQDYRDELKDFFAVDKQLASELEYDMKKYQEQLVQEQELAKHADVAGTAGGAEVAPVAQVALCLETVPVPAGQENPAMSPAVSQPCTPRASAGHVAVSSPTPETGPLQRLLPKARPMSLSTIAILNSVKKAVESKSRHRSRSLGVLPFTLNSGSPEKTCSQVSSYSLEQESNGEIEHVTKRAISTPEKSISDVTFGAGVSYIGTPRTPSSAKEKIEGRSQGNDILCLSLPDKPPPQPQQWNVRSPARNKDTPACSRRSLRKTPLKTAN	binds
NOP2 (protein, UniProt P46087 1-812) MGRKLDPTKEKRGPGRKARKQKGAETELVRFLPAVSDENSKRLSSRARKRAAKRRLGSVEAPKTNKSPEAKPLPGKLPKGISAGAVQTAGKKGPQSLFNAPRGKKRPAPGSDEEEEEEDSEEDGMVNHGDLWGSEDDADTVDDYGADSNSEDEEEGEALLPIERAARKQKAREAAAGIQWSEEETEDEEEEKEVTPESGPPKVEEADGGLQINVDEEPFVLPPAGEMEQDAQAPDLQRVHKRIQDIVGILRDFGAQREEGRSRSEYLNRLKKDLAIYYSYGDFLLGKLMDLFPLSELVEFLEANEVPRPVTLRTNTLKTRRRDLAQALINRGVNLDPLGKWSKTGLVVYDSSVPIGATPEYLAGHYMLQGASSMLPVMALAPQEHERILDMCCAPGGKTSYMAQLMKNTGVILANDANAERLKSVVGNLHRLGVTNTIISHYDGRQFPKVVGGFDRVLLDAPCSGTGVISKDPAVKTNKDEKDILRCAHLQKELLLSAIDSVNATSKTGGYLVYCTCSITVEENEWVVDYALKKRNVRLVPTGLDFGQEGFTRFRERRFHPSLRSTRRFYPHTHNMDGFFIAKFKKFSNSIPQSQTGNSETATPTNVDLPQVIPKSENSSQPAKKAKGAAKTKQQLQKQQHPKKASFQKLNGISKGADSELSTVPSVTKTQASSSFQDSSQPAGKAEGIREPKVTGKLKQRSPKLQSSKKVAFLRQNAPPKGTDTQTPAVLSPSKTQATLKPKDHHQPLGRAKGVEKQQLPEQPFEKAAFQKQNDTPKGPQPPTVSPIRSSRPPPAKRKKSQSRGNSQLLLS	binds

Source: publication PMC12579238
